Test results as given in paper PMC12324684.

Amino acid sequences for entries named in this document (tags omitted).
UniProt Q6A070: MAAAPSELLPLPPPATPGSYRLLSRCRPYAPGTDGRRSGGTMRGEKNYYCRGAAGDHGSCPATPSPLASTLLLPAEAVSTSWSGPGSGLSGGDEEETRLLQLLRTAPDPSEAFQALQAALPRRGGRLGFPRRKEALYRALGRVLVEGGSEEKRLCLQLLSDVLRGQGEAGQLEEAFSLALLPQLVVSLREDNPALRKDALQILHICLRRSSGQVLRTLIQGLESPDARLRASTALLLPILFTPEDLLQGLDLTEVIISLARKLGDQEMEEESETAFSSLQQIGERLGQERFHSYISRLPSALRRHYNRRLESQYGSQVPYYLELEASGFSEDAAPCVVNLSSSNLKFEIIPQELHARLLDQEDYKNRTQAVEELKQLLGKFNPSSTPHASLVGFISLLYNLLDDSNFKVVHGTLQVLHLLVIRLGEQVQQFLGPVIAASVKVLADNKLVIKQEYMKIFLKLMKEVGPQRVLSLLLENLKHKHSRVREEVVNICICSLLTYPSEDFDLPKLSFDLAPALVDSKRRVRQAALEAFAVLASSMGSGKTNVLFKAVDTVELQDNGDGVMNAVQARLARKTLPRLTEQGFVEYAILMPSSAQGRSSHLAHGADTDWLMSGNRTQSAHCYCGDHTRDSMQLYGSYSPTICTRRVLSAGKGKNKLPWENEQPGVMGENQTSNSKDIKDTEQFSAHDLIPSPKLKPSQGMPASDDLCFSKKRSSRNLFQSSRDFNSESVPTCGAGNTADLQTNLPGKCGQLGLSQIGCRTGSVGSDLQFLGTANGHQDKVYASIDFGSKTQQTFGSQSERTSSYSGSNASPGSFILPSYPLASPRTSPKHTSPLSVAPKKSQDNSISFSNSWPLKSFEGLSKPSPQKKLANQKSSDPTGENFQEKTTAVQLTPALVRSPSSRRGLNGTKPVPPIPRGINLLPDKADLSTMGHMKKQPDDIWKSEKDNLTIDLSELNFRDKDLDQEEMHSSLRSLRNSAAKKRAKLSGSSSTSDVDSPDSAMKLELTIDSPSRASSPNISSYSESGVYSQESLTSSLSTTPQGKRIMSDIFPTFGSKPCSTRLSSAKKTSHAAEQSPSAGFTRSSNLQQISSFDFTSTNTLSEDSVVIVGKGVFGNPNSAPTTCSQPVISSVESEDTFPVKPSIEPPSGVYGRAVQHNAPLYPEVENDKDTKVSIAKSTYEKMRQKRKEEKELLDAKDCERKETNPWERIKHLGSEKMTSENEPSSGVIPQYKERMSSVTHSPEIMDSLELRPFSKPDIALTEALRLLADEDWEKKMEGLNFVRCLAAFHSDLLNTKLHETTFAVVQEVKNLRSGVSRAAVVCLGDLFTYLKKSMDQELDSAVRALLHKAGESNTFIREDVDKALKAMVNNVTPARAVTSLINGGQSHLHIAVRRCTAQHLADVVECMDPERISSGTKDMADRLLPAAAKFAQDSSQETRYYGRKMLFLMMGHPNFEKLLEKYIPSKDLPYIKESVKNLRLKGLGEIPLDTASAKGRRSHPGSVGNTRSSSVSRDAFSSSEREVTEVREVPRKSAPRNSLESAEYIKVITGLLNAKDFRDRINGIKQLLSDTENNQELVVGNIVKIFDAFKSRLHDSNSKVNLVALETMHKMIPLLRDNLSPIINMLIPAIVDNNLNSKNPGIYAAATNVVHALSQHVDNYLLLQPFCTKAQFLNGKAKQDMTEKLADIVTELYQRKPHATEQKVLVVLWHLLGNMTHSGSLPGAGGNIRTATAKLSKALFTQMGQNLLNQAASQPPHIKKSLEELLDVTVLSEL

T1: Flag-miniTurbo-CCDC66 (UniProt A2RUB6)
T1 sequence: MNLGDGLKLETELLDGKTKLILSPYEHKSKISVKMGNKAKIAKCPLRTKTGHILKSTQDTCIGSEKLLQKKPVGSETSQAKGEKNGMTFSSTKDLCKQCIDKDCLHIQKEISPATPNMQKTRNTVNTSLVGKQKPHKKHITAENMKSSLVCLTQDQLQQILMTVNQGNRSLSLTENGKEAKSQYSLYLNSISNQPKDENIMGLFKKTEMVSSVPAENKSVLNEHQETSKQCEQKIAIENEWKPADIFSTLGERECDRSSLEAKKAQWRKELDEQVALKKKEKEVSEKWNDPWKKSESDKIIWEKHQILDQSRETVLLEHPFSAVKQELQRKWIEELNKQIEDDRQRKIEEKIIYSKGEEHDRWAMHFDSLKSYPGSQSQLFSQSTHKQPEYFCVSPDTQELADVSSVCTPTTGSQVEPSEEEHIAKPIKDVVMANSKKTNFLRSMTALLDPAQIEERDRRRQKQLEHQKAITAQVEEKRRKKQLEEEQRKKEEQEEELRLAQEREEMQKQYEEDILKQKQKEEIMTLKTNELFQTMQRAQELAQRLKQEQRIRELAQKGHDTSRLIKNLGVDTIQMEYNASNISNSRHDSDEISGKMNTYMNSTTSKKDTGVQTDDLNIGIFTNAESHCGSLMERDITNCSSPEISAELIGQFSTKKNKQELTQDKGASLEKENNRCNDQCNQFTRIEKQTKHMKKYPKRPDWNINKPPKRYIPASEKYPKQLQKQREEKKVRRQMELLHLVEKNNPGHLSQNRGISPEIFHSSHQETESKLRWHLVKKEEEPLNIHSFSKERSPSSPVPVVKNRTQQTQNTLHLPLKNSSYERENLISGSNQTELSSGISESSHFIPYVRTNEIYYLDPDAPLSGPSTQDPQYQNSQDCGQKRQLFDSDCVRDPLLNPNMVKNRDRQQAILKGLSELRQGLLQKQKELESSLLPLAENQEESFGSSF

B1: ARMC9 (protein, UniProt Q9D2I5 1-817)
chain: MGDILAHESELLGLVKEYLDFAEFEDTLKTFSKECKVKGKPLCKNVGGPLKKDSKSLVIQRDLVAAFDSGDQKAFFDLWEGHIPSSVRDTDSLAQKLEFYLHIHFAIYLLKYCRGRPDKQELDKRISYFKTYLETKGAALSQTTEFLPFYALPFVPNPMVHPSFKELFQDSWTPELKLKLEKFLALTFKANNTPKLLTIYKENGPNSKELLQQLHQQLVEAERRAMTYLKRYNKIQADYHNLIGVTAELVDSLEATVSGKMITPEYLQSVCVRLFSNQMRQSLAHSVDFTRPGTASTMLRASLAPEKLKDVPLLPSLDYEKLKKDLIWGSDRLKAFLLQALRWRLTTSHPGEQRETVLQAYISNDLLDCHSHNQRSVLQLLHSKSEAVRQYMARLINALASLAEGRLYLAQNTKVLRMLEGRLKEEDKDVITRENVLGALQKFSLRRPLQTAMIRDGLIFWLIDLLKDPDCLSDYTLEYSVALLMNLCLRSAGKNMCAKVAGLMLKVLSDLLGHENHEIQPYVNGALYSILSIPSIREEARAMGMEDILRCFIKEGNAEMIRQIEFIIKQLNSEDLLDGVLESDDDEDEDDEEDHDIMEADLDKDELIQPQLGELSGEKLLTTEYLGIMTNTGKARRKGPASVQWSGDEPLRRPVTPGGHRTGCPVLGDHLISPQNAQQARNGCLRAMPVAHPDDYKEGKPGVTGCGTSSSFMDHKPREWSPAGHQKSRLVPTAALGWPREMTQDPSSGHITREFVPAFTCKPQVPSTPETVEQNPLKAKALSLAPQFSSSGPQQASRPASTASSTRGLHSSQSIRK
B2: CEP104 (protein, UniProt Q80V31 1-926)
chain: MPHKIGFVVVSSSGHEDGFSARELMIHAPTVSGWRSPKFCQFPQEIVLQMVERCRVRKLQLLAHQYMISSKVEFYISESLPEYLVPYQAERFRRLGYVSLCDNEKTGCKARELKSVYVDAVGQFLKLIFHQNHANKYNIYNQVALVAINIIGDPADLGDESNITSREKLIDHYLGHSPHNPEDPALDGTFSGRSDYISPLDDLAFDMYQDPEVAQIIRRLDERKREAVKKERYDHAKKLKQAIADLQKVGERLGRYEVEKRCAVEKEDYDLAKEKKQQMARYRAQVYEQLELHGLLQGEPEMQRPFALPLQPLASPSSPQHWKAVSSLPRTEKLVAEDSFAGPVLQEKPSASSPQHSAVDPSPPAAGHAPRSHTEVLPYDERPLPVTRKQLGEASAEAEVKEADSDVRRRGVAGEPEPLTEKALREASAAIDTLGEALVAGAYSKMWSCREDALLALYKKLMEMPVGTQKEDLKNMLRASVFLIRRAIKDIVASVFQASLKLLKMIITQYIPKHKLGKLDTTHCVERAFPLLLARAGDSSARLRVMALNFIQEMALFKEVKSLQLIPSYLVQPLKANASVHLAMSQVDLLARLLRDLGTESSGFTVDNVMKFAVSALEHRVYEVRETAVRIILDMYRQHPALTLEHLPPDDSATRRNLLYKAIFEGFAKIDGSVLPTEAEVRAQKRVATKEAEKQKKEEMKALQGQSGELRETQAGVQEKESEAVKLRNQDPQGRKAVLPDTPEIPANHFLDNLCIFCGERNESFTEEGLDLHYWKHCLMLTRCDHCRQVVEISSLTEHLLTECDRRDGFGKCPRCSEAIPKEELPGHIKTKECSPAKPEKVANHCPLCHENFAPGEEAWKVHLMGPAGCTMNLRKTHVLYKATAPQQGKGPAAAKSSTSAPKVGSKIPTPKGGLSKSSSRTYMRR
B3: CSPP1 (protein, UniProt B2RX88 1-1205)
chain: MADSLDEFIEEQKAKLAKDKAELESDPPYMEMKGKASEKLSENSKILISMAKENIPPSSQQQPKGPLGIEYGLSLPLGEDYEQKKHKLKEELRQDYRRYLTQGITQAKRKKNFLSTGETDPSTLGVSLPIDERLSAKERLKLERNREYNQFLRGKAESTEKVRQVEKNIEPKSQRNKNPISQGKSDLPLQIQTAYTHSEGPWLSRQEEGLYRQLDGEIELRSRRPLKQTKEEVGISGAEHPSLSGSAGVPERRARRANGERVLDRQHCRADRDPGVSEDMDERFRFESDFDRRLLRVYTNGRPHGSRRGYVDGDDVPEEPNTQISAAENKSVHCNGPPRSADLDITSPFAGMLFGGEDRELTKRRKEKYRQELLEQIAEQQKKKRREKDLAFGITTSGVQDPEKSPDRLKQFSLTPRHFEEMPPERPRVAFQTPPPPFSAPSSPSVPPVHSAPSHNEDLHSGLGSTLGELAHPRVLPVPLNPPPPPLLAPPASNYRTPYDDAYYFYGARNTLDPNIVYYGSGMIGGQPAPHVSAPVTHQVAPPAVNTVGQNEQKVLSDGLRNSGLVFEDKPKPSTQSLQSYQEALQEQIREREARRKKERLEKEEYEAKLEAEMRIYNPWGKGGGGAPLRDAKGNLITDLNRMHRQNIDAYHNPDARTYEDKRAVVSIDQNLATSNAENLEDSANKNSGPLQTQSSPFARGNTFGEPLSELQIKQQELYKNFLRFQIEEKRQREEAEREKLRVAEEKEEKRLAEQRARIQQEYEEEQERRREKEEEQRLKNEELIRLAEERRKEAERKKKEEEEKHNLQLQHYYERENIIGDETKHLRQPSPVVPALQNKIASKLQRPPSVDTIISSFIHESSMSRAQSPPVPARKNQLRAEEEKKNVIMELSEMRKQLRSEERRLQGRLLHLDSDDEIPMRKRERNPMDIFDMARHRVQAPVRRPSPKGLDATTFQNIHDFNELRERDSDTRVDLRLMYPDPPRDHHTLEIQQQALLREQQKRLNRIKMRRDAGADLDTICTDNAQGRRMPRDDTNDFLKNSLLESDSAFIGAYGETYPVIEDNAFPPPSQLPSARERRRNKLKGLDFDSSRLHTPQDGLSLKSISSVNVDQVRMRNEDRMRRLTEQQKKPTNTDDEGSLVDPDDIMRHLSDDGRNSAATEPWLRPGTSESLKRFMAEHLNEEQHKGPGKPGTFTWQGLSAAHA

These molecules were tested against T1, Flag-miniTurbo-CCDC66 (assay: proximity labelling; IMCD3 cells stably expressing Flag-miniTurbo-CCDC66 (control Flag-miniTurbo), serum starved 48 h, serum stimulated 1 h or 6 h, 500 uM biotin for the last 30 min; RIPA lysis, streptavidin-agarose pull-down, mass spectrometry, NSAF analysis).

binding	Molecule
binds	RAB5 (mouse (endogenous in IMCD3))
no binding	RAB7 (mouse (endogenous in IMCD3))
binds	TOGARAM1 (from UniProt Q6A070 1-1776)
binds	B1
binds	B2
binds	B3

No constants are given. Whether binding was seen depends on the method and setting. Binding seen in cells or lysates may run through a third protein. A yes stands for co-enrichment or nearness to the bait. Other partners may have been found. No binding means not detected with the bait. Where a sequence is shown, tags or fusion partners need not be part of it.
